Source: US20220112270A1
Results are given in words; binding and its absence hold for the method and conditions named. Some entries that bind do so weakly or less than the wild type.

Sequences of proteins named here, by UniProt entry; tags and fusion partners are left off. Residues count along the entry.
UniProt P00772, residues 27-266: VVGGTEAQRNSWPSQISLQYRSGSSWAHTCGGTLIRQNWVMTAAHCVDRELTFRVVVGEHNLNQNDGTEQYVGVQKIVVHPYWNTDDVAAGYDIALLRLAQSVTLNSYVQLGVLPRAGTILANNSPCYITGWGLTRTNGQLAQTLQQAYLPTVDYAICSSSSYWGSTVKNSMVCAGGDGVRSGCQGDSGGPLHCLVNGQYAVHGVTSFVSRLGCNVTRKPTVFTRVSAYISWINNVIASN
UniProt P01009, residues 25-418: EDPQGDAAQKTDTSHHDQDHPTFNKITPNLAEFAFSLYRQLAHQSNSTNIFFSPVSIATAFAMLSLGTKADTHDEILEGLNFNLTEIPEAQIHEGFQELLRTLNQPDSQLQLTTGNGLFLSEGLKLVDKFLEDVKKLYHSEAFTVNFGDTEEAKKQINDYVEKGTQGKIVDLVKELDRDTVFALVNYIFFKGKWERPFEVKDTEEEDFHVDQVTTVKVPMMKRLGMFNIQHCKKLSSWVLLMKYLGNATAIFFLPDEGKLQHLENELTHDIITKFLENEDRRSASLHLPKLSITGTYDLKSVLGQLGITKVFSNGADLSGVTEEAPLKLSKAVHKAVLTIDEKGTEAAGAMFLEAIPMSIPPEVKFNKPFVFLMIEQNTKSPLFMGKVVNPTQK

Legend:
[1] = biological target: pancreatic elastase (E7885; Sigma Aldrich) (UniProt P00772); assay: complex formation, SDS-PAGE (FIG. 11D)
[2] = biological target: pancreatic elastase (E7885; Sigma Aldrich) (UniProt P00772); assay: 7.5% SDS-PAGE, Coomassie Brilliant Blue R350
[3] = biological target: pancreatic elastase (E7885; Sigma Aldrich) (UniProt P00772); assay: 7.5% SDS-PAGE of AAT incubated with elastase (FIG. 11D, Lane 4)
[4] = biological target: pancreatic elastase (E7885; Sigma Aldrich) (UniProt P00772); assay: SDS-PAGE of reaction mixes
[5] = biological target: pancreatic elastase (E7885; Sigma Aldrich) (UniProt P00772); assay: 7.5% SDS-PAGE of AAT incubated with elastase (FIG. 11D, Lane 2)

Measured: binding

recombinant human alpha 1-antitrypsin (AAT) derived from recombinant CHO cells (from UniProt P01009 25-418)
binds: [1] | [2] | [3] | [4]

plasma-derived human alpha 1-antitrypsin (AAT) (from UniProt P01009 25-418)
binds: [2] | [5] | [4]
